For the assay, the target named is T1, N-Myc Downregulated like 1 (NDL1) (Arabidopsis) (UniProt Q9FJT7).
T1 sequence: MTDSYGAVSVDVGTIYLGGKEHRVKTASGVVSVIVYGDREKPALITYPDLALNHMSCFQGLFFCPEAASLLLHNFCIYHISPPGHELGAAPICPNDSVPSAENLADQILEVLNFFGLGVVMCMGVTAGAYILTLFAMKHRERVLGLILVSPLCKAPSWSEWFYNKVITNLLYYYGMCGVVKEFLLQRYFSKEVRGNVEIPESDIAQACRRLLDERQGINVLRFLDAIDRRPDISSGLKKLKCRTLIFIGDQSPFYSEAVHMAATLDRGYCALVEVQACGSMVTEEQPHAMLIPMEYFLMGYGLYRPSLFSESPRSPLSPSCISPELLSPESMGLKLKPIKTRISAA
As to the kind of experiment: two-hybrid; Gal4-based two-hybrid in yeast AH109; NDL1 with Gal4 DNA-binding domain (pAS-attR), partner with Gal4 activation domain (pACTGW-attR); double transformants on SD/-Leu/-Trp; colony-lift filter beta-galactosidase assay with X-gal, 14-16 h at 30 °C, blue colonies scored positive; NDL1 alone as negative control.

No constants are given. Whether binding was seen depends on the method and setting. A result given as binding can be weak or reduced; the word gives no strength. Sequences can lack the tags named with a protein.

Take SLT1 (Arabidopsis): the binding result is “binds”.

These data come from publication PMC8472134.
